This is an account of results in patent US20200292534A1.

Results are given in words; binding and its absence hold for the method and conditions named. Some binding calls cover weakened binding; strength is not graded here.

This assay concerns the target NLpoly11S. The assay is described as follows: spectral scan of luminescence, purified NLpoly11S + peptide.

B1: PBI-5436 (peptide)
peptide: GVTGWRLCERILA
modifications: fluorophore conjugated (named Fluorophore-NLPep1); dye and linker not described
Take B1: the binding entry is listed as “binds”.

B2: PBI-5434 (peptide)
peptide: GVTGWRLCERILA
modifications: fluorophore conjugated (named Fluorophore-NLPep1); dye and linker not described
Consider B2, for which the binding result is reported as “binds”.
